Among the data in publication PMC2621155 are binding values, retold here.

These are yes or no findings as the source states them, for the method shown. Binding seen in cells or lysates may run through a third protein. For some assays here: A result given as binding can be weak or reduced; the word gives no strength. For some assays here: Sequences can lack the tags named with a protein.

Test [1] addresses T1, Myc-rapsyn (mouse) (UniProt P12672).
T1 sequence: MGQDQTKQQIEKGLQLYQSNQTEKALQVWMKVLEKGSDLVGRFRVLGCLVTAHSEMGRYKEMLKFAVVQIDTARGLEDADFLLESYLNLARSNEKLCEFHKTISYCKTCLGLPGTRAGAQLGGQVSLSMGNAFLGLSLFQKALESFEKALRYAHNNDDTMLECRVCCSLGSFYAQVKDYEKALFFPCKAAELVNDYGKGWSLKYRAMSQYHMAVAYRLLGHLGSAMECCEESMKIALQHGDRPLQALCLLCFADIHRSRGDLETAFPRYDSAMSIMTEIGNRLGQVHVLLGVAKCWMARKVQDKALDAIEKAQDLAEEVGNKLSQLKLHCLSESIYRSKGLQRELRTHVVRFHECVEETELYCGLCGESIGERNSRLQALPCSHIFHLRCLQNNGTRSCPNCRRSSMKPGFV
The test is described as follows: co-IP; HEK 293 cells cotransfected with GFP-α-actinin and Myc-rapsyn, Myc-calsarcin or Myc empty vector; anti-Myc antibody and protein G agarose beads; lysis buffer 50 mM Tris-HCl pH 7.5, 150 mM NaCl, 1% NP40, .5% sodium deoxycholate.

Test [2] deals with T2, rapsyn, endogenous in C2C12 myotubes (mouse (endogenous in C2C12)) (UniProt P12672).
T2 sequence: T1 sequence
The test is described as follows: co-IP; C2C12 myotube lysates, anti-rapsyn antibody and protein A agarose beads, blot for α-actinin; myotubes untreated, with agrin 10 ng/ml 18 hr, with agrin and STI-571, or with agrin and then 10 μM carbachol for 4 hr.

The target of test [3] is GST-α-actinin 653–824. Nature of the test: pull-down; α-actinin 2 GST-fusion proteins immobilized on glutathione sepharose 4B beads, incubated with lysates of HEK293 cells transfected with HA-rapsyn; immunoblot with anti-HA; only the target purified.
In test [4] the target is GST-α-actinin 653–824. The test is described as follows: pull-down; immobilized GST-α-actinin constructs incubated with in vitro translated [^35S]-labeled rapsyn; 25 mM HEPES, 1 mM DTT, 0.5% Triton X-100, 150 mM NaCl, pH 7.5, 2 hr at 4°C; autoradiogram; only the target purified.
Test [5] has as its target GST-α-actinin 751–824. Described as above.

As for GFP-α-actinin, in test [1], the binding result was “binds weakly”.

With “α-actinin, endogenous in myotubes (mouse (endogenous in C2C12))”, the binding entry in test [2] was “binds weakly”.

B1: HA-rapsyn (protein, UniProt P12672 1-412)
chain: T1 sequence
Regarding B1, the binding entry in test [3] is reported as “binds”.

B2: [^35S]-labeled rapsyn (protein, UniProt P12672 1-412)
chain: T1 sequence
modifications: [^35S]-labeled methionine
Turning to B2, the binding entry was “binds” in test [4] and “no binding” in test [5].
